This is an account of results in article doi:10.1101/567305.

Protein sequences, listed by entry. Tags and fused reporters are not part of them.
UniProt Q8TD19: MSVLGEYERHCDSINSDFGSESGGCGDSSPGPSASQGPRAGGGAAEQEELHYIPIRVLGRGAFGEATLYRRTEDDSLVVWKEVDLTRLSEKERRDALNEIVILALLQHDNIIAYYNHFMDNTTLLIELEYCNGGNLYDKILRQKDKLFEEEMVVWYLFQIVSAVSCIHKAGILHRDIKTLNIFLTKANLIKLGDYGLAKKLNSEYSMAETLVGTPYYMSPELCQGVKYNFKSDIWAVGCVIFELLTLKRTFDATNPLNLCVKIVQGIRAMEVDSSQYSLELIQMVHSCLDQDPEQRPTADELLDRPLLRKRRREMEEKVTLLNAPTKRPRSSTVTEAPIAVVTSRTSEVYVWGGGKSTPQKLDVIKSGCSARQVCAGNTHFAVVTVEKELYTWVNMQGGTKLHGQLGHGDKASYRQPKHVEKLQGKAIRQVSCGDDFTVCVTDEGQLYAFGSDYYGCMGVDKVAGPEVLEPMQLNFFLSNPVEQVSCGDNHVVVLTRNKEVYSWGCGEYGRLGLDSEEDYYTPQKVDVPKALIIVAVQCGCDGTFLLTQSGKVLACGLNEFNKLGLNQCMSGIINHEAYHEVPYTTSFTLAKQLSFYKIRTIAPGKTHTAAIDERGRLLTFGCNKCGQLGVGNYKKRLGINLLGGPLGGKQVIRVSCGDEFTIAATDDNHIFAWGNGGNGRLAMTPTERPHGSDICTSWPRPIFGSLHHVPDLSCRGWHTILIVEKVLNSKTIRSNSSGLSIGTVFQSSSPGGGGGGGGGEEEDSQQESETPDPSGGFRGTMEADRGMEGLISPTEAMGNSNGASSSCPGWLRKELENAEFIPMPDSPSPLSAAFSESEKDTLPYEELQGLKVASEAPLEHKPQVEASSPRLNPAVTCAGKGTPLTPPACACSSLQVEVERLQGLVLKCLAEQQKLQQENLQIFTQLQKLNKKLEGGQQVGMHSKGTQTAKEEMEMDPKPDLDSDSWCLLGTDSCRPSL

No constants are given. Whether binding was seen depends on the method and setting. Binding seen in cells or lysates may run through a third protein. These calls come from enrichment with a bait or labelling near it, and not all partners need be listed.

The assay addresses myc-tagged wild-type NEK9 (human) (UniProt Q8TD19). As to the kind of experiment: affinity purification with mass spectrometry.

B1: EML4 (endogenous), echinoderm microtubule-associated protein-like 4 (protein, UniProt Q9HC35 1-981)
chain: MDGFAGSLDDSISAASTSDVQDRLSALESRVQQQEDEITVLKAALADVLRRLAISEDHVASVKKSVSSKGQPSPRAVIPMSCITNGSGANRKPSHTSAVSIAGKETLSSAAKSGTEKKKEKPQGQREKKEESHSNDQSPQIRASPSPQPSSQPLQIHRQTPESKNATPTKSIKRPSPAEKSHNSWENSDDSRNKLSKIPSTPKLIPKVTKTADKHKDVIINQEGEYIKMFMRGRPITMFIPSDVDNYDDIRTELPPEKLKLEWAYGYRGKDCRANVYLLPTGKIVYFIASVVVLFNYEERTQRHYLGHTDCVKCLAIHPDKIRIATGQIAGVDKDGRPLQPHVRVWDSVTLSTLQIIGLGTFERGVGCLDFSKADSGVHLCIIDDSNEHMLTVWDWQKKAKGAEIKTTNEVVLAVEFHPTDANTIITCGKSHIFFWTWSGNSLTRKQGIFGKYEKPKFVQCLAFLGNGDVLTGDSGGVMLIWSKTTVEPTPGKGPKGVYQISKQIKAHDGSVFTLCQMRNGMLLTGGGKDRKIILWDHDLNPEREIEVPDQYGTIRAVAEGKADQFLVGTSRNFILRGTFNDGFQIEVQGHTDELWGLATHPFKDLLLTCAQDRQVCLWNSMEHRLEWTRLVDEPGHCADFHPSGTVVAIGTHSGRWFVLDAETRDLVSIHTDGNEQLSVMRYSIDGTFLAVGSHDNFIYLYVVSENGRKYSRYGRCTGHSSYITHLDWSPDNKYIMSNSGDYEILYWDIPNGCKLIRNRSDCKDIDWTTYTCVLGFQVFGVWPEGSDGTDINALVRSHNRKVIAVADDFCKVHLFQYPCSKAKAPSHKYSAHSSHVTNVSFTHNDSHLISTGGKDMSIIQWKLVEKLSLPQNETVADTTLTKAPVSSTESVIQSNTPTPPPSQPLNETAEEESRISSSPTLLENSLEQTVEPSEDHSEEESEEGSGDLGEPLYEEPCNEISKEQAKATLLEDQQDPSPSS
Consider B1, for which the binding entry was “binds”.
